# No constants are given. Whether binding was seen depends on the method and setting. In cells and extracts the contact can be indirect. Binding calls can cover weak binding; strength is not graded here.
# Chains of the proteins cited; added tags and fusions are not shown. Lines headed by an entry give the natural chain unless they say otherwise; changes in a name come on top. A line that says so, or that is headed by a name, gives the form on record, which may keep a tag or linker.
# UniProt Q15554: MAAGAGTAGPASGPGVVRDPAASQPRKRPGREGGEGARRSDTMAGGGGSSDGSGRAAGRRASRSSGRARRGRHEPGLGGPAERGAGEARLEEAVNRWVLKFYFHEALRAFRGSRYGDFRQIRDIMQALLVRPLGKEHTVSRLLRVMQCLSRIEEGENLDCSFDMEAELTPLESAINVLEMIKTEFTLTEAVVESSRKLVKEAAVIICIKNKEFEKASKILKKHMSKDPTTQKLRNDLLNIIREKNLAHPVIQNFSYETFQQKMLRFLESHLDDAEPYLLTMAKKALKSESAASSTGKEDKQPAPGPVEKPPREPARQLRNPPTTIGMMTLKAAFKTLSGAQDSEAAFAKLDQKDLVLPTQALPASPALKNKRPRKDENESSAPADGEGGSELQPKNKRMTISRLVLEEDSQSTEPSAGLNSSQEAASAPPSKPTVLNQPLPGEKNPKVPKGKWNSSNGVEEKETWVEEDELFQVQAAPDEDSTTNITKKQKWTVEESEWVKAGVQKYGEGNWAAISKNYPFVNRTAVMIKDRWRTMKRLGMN
# lamin C (P48678-2, form named): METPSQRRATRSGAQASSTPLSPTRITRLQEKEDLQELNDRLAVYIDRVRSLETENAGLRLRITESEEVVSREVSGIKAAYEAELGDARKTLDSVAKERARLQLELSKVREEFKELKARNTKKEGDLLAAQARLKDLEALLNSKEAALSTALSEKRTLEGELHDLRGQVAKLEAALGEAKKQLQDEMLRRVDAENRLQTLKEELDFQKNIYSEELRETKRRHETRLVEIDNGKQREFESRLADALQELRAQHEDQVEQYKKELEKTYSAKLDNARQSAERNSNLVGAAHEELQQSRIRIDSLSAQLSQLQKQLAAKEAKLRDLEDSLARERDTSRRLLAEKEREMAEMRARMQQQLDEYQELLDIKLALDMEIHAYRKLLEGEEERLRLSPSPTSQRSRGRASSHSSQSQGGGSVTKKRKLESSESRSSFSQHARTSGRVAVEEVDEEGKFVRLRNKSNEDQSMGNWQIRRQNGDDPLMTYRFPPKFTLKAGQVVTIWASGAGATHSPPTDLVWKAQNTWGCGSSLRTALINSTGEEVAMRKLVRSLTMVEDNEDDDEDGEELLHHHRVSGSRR
# Columns and labels:
# [1] = target: recombinant protein corresponding to udTRF2 (the long linker region of TRF2) (UniProt Q15554); experiment: co-IP; anti-udTRF2 antibodies on protein A Sepharose incubated with an excess of recombinant udTRF2 for 3 h, then mouse liver nuclear extract added; Western blot with anti-lamin A and anti-lamin C; only the target purified
# [2] = target: recombinant protein corresponding to udTRF2 (the long linker region of TRF2) (UniProt Q15554); experiment: co-IP; nuclear lamina extract of mouse liver nuclei incubated with 5 uL recombinant udTRF2 (0.25 mg/mL) for 7 h, then added to protein A Sepharose with anti-udTRF2 antibodies; IP buffer 20 mM Tris pH 7.5, 150 mM NaCl, 1 mM EDTA, 1 mM PMSF; 4 °C; Western blot with anti-lamin C and anti-lamin B1; only the target purified
substance,measurement,setting,value
lamin C (from UniProt P48678-2 1-574),binding,[1],binds
same,binding,[2],binds
